This is one part of the list.

The text below walks through data of PMC7819943, “Rice protein-binding microarrays: a tool to detect cis-acting elements near promoter regions in rice”.

For the assay, the target named is T1, OsSMF1 (Oryza sativa, UniProt Q6ZLB0 1-436).
T1 sequence: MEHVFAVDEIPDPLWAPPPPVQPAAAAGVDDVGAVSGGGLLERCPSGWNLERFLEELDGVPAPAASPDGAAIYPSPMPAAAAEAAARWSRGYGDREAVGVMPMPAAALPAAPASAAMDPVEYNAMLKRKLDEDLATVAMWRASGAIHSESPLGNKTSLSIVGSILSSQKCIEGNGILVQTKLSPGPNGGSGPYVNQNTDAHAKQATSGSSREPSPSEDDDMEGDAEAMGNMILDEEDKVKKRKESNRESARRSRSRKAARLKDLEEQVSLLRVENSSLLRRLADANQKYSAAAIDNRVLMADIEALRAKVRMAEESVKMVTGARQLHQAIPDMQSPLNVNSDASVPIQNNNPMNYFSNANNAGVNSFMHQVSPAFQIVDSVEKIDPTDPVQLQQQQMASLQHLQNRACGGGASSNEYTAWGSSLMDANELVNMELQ
The assay is described as follows: protein-binding microarray (RPBM); PBS, 2% BSA, 51.3 ng/ul salmon testes DNA, 50 uM zinc acetate, 200 nM TF, 25 C, 1 h; high values mean tight binding. Particulars: protein: recombinant; tags: N-terminal polyhistidine and DsRed monomer fusion (pET32a); chain copies: 2; label: CyDye5-dUTP incorporated in the synthesized complementary strand; 3' TTTTT single-stranded linker to array surface; dsDNA, one strand shown. A digest of the protocol: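 Binding signal is reported as fluorescence intensity per feature (arbitrary units) from an Axon 4000B scanner. Incubation used 200 nM of each Ni–NTA-purified, N-terminally polyhistidine- and DsRed-fused transcription factor from E. coli BL21-CodonPlus on a double-stranded custom Agilent array for 1 h at 25 °C, with 50 µM zinc acetate in the buffer, followed by washing.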
In the case of “TGAGGAACAGGATGAGCTGGTCCTTCGATCTGGATGGGCACGGAGTCACCTAGTGCAG”, the binding signal was 3540 fluorescence intensity (a.u.).

For the sequence “GCAATCTTTGCCTTGGTCCTCTTGAAGTCTTTGGCGGTATCGGAGTCACCTAGTGCAG”, the binding signal is 27700 fluorescence intensity (a.u.).

“TGAGTCTGAATTAGCATATAGGTCCCTCCCTCCCAAGCATCGGAGTCACCTAGTGCAG”: the binding signal was 5600 fluorescence intensity (a.u.).

In the case of “CTAGCTAGCTTGGCCTGCTGCCTGCTTACTGTACATCTCTCGGAGTCACCTAGTGCAG”, the binding signal was 3340 fluorescence intensity (a.u.).

Take “TGGCTGTACCACGTACGTCTATTACGTAGCACACTGTAGCCGGAGTCACCTAGTGCAG”: the binding signal is 4390 fluorescence intensity (a.u.).

Turning to “CCGCCCTTCTGCGCGCCGCCAACACCGTTCCTCCGCCGCGCGGAGTCACCTAGTGCAG”, the binding signal is 3260 fluorescence intensity (a.u.).

For “CCTCACCCGCCGCGTGACGTTACCGCCCACACCCCAAACCCGGAGTCACCTAGTGCAG”, the binding signal is 4210 fluorescence intensity (a.u.).

For “TCTCTCTCTCTCTCTCTCTCTCTCTCCTCACGTCACATGACGGAGTCACCTAGTGCAG”, the binding signal is 4720 fluorescence intensity (a.u.).

Turning to “CAACCCGCGACGTTGTCCCGTTACGCGTCAGCTTGCCACGCGGAGTCACCTAGTGCAG”, the binding signal is 7900 fluorescence intensity (a.u.).

Take “ATTGATGCAGCCCGTAGGCTGTAGCCACGTGGATCAATAACGGAGTCACCTAGTGCAG”: the binding signal is 9120 fluorescence intensity (a.u.).

“GGACAAAGAATACAACAAGAGTGTACTGCTTATATGCTCACGGAGTCACCTAGTGCAG”: the binding signal was 3200 fluorescence intensity (a.u.).

For “TAATATATTTCCATGTCATCAGGAGCTAATGTTGTAGATACGGAGTCACCTAGTGCAG”, the binding signal was 5960 fluorescence intensity (a.u.).

With “AAGTCAATGGAATATTATCATGTACGATATTGTTATAAAGCGGAGTCACCTAGTGCAG”, the binding signal is 10700 fluorescence intensity (a.u.).

Regarding “TGGTGTGTAATTTGTGCAAATTCTAAGCAAATGCAAATTGCGGAGTCACCTAGTGCAG”, the binding signal is 17200 fluorescence intensity (a.u.).

Regarding “GCCGGAGCACCGCTATACACATCACCAAAGGTCACGCTATCGGAGTCACCTAGTGCAG”, the binding signal is 3700 fluorescence intensity (a.u.).

With “TGGAGGAGGAACCACGGCGCACTGGACGCGTCCAGTGATCCGGAGTCACCTAGTGCAG”, the binding signal is 5300 fluorescence intensity (a.u.).

With “TCCCAAAATTCATGCAATTTCCGATATTTCACTTCCATTGCGGAGTCACCTAGTGCAG”, the binding signal is 5300 fluorescence intensity (a.u.).

Take “AATATACTAATTACAAACAGGTCCCTCGTGGGCTCGTGGGCGGAGTCACCTAGTGCAG”: the binding signal was 3390 fluorescence intensity (a.u.).

Turning to “AGATGGTCCCATATGTCATCCTGTCAATTAAAGCAATTGGCGGAGTCACCTAGTGCAG”, the binding signal is 3490 fluorescence intensity (a.u.).

For the sequence “TAGAGTCATAGACACGACAACAGTATTAGATTCCGGCAAACGGAGTCACCTAGTGCAG”, the binding signal is 3310 fluorescence intensity (a.u.).

As for “CGCGCGCCGGCGTGGCGTGCGACAGCTGGAGGCTAGGCGTCGGAGTCACCTAGTGCAG”, the binding signal was 4520 fluorescence intensity (a.u.).

On to “TTATTGTGTGTACGTGCCAAGATCAAATTGCGATTCCTGACGGAGTCACCTAGTGCAG”, for which the binding signal is 3480 fluorescence intensity (a.u.).

As for “ACACACGCGTCTCCACAACACGTCCCTCCAGGTCCAACCCCGGAGTCACCTAGTGCAG”, the binding signal is 4240 fluorescence intensity (a.u.).

Regarding “CCACGCGCGCCAGCGATCGCCACGCCACGCCGCCGTCGCACGGAGTCACCTAGTGCAG”, the binding signal was 36100 fluorescence intensity (a.u.).

As to “AATTTGTTTGGAATTTATTATGGTGATGACTGGGAAGGCCCGGAGTCACCTAGTGCAG”, the binding signal is 3140 fluorescence intensity (a.u.).

With “AGGTGATGATGTGGATCACGCTGACATGTGGGGCTCACGTCGGAGTCACCTAGTGCAG”, the binding signal was 7940 fluorescence intensity (a.u.).

Regarding “CAAGCTGCTTCATAAAATGCAGTATAGTTTGGGAAGAGTGCGGAGTCACCTAGTGCAG”, the binding signal was 24400 fluorescence intensity (a.u.).

As to “TGTGTGAACGTGACACGTCATCCTATTTAGAATCGAATACCGGAGTCACCTAGTGCAG”, the binding signal is 19500 fluorescence intensity (a.u.).

In the case of “TTGCAAAACTCTTCTAAAGATATCTAGATAAATTCTTTCTCGGAGTCACCTAGTGCAG”, the binding signal was 20500 fluorescence intensity (a.u.).

Regarding “TGATTGATTAGTCACCACACCACAGTGCCACACACGTAGTCGGAGTCACCTAGTGCAG”, the binding signal is 3220 fluorescence intensity (a.u.).

Take “CTCATCAGTCGCACGTACCACACCAGCATCCTCGCACGGTCGGAGTCACCTAGTGCAG”: the binding signal is 4530 fluorescence intensity (a.u.).

For the sequence “CCCAGCGCGAAGCGGACGGCGATCGCGGACCGCGTGGGCTCGGAGTCACCTAGTGCAG”, the binding signal is 23000 fluorescence intensity (a.u.).

For “TTTTGTGGTTGAGGGGTACGATTAGATCTAAGGCAAGACACGGAGTCACCTAGTGCAG”, the binding signal was 3200 fluorescence intensity (a.u.).

As to “GGAGAGACTCGTGAAGTCGTTGAAGGGAAGGTTGACTGGACGGAGTCACCTAGTGCAG”, the binding signal is 3410 fluorescence intensity (a.u.).

In the case of “CGCCGTTCCGTTTCCTCATCCAAACTACACGCACTACCTCCGGAGTCACCTAGTGCAG”, the binding signal was 4150 fluorescence intensity (a.u.).

Turning to “CGACGAGAACTTCATTCACGATGACGAGGAGGTTAGCTGGCGGAGTCACCTAGTGCAG”, the binding signal is 3750 fluorescence intensity (a.u.).

Turning to “GATCCCCAATTCGAGATGAATCATGACAAATCATCCGTGTCGGAGTCACCTAGTGCAG”, the binding signal is 4450 fluorescence intensity (a.u.).

Turning to “CACCGACGCCCTCCTCCTCCCGCCAGCTGACTCAGAAGGGCGGAGTCACCTAGTGCAG”, the binding signal was 6020 fluorescence intensity (a.u.).

For the sequence “GACGCATGCACGCCGCCACGTCGCGCGCCATGGCCACCCCCGGAGTCACCTAGTGCAG”, the binding signal was 9700 fluorescence intensity (a.u.).

Take “TCGATTTGCCGCTCACTTCCATCCCTATGAGCATGCAGTGCGGAGTCACCTAGTGCAG”: the binding signal was 3810 fluorescence intensity (a.u.).

On to “GATGTTTGGGGTGATGTTTCGACATACTCGCTACTATCGACGGAGTCACCTAGTGCAG”, for which the binding signal was 3230 fluorescence intensity (a.u.).

Turning to “AAATAAATAAAATGAAGTTGACCTGTCACCTGTATGAGAGCGGAGTCACCTAGTGCAG”, the binding signal is 4580 fluorescence intensity (a.u.).

For “TCGTACCGGTACGTGACACATCTTAATACAATGAATCTTGCGGAGTCACCTAGTGCAG”, the binding signal was 4230 fluorescence intensity (a.u.).

As for “TAAACTCAAACGGACGAAATATGTGGCATGTGGAATTTTCCGGAGTCACCTAGTGCAG”, the binding signal was 30000 fluorescence intensity (a.u.).

Turning to “GCGAGCTGTGCCGTTCTTGATCACCGAGGCGATGGCGGCGCGGAGTCACCTAGTGCAG”, the binding signal was 39200 fluorescence intensity (a.u.).

Regarding “CGATATACGTACACATGTGACATGACGTAATTTTACATCCCGGAGTCACCTAGTGCAG”, the binding signal was 4320 fluorescence intensity (a.u.).

With “ACGGTGTCTAACAGAGTGAAAGTGACGGCGATGGCATTTTCGGAGTCACCTAGTGCAG”, the binding signal was 3250 fluorescence intensity (a.u.).

Turning to “CCTTCTCCATGGAGGACTACCTCGTCGACACCTGCGGCCTCGGAGTCACCTAGTGCAG”, the binding signal is 3440 fluorescence intensity (a.u.).

On to “TCGCTTCGCTCGCATCACGTGGCTCCGCCTCCTCGTCTCCCGGAGTCACCTAGTGCAG”, for which the binding signal was 4410 fluorescence intensity (a.u.).

In the case of “CACAACTTTTGATTTCAGGACATATGTGTTCAGCTTTCCTCGGAGTCACCTAGTGCAG”, the binding signal was 3370 fluorescence intensity (a.u.).

As for “TCTCTTCATCGTCGTCAGCGGCCTTGTATATTAGTGGTCACGGAGTCACCTAGTGCAG”, the binding signal is 5230 fluorescence intensity (a.u.).

With “GGAAGGCGACGCGTTACTGTGCACGATGCGGACCTCGAAACGGAGTCACCTAGTGCAG”, the binding signal was 60400 fluorescence intensity (a.u.).

“ATACATTCCACATGGATTCATAGTCATGAGTCTATTTTCTCGGAGTCACCTAGTGCAG”: the binding signal was 4100 fluorescence intensity (a.u.).

On to “GTTCTCTCCAACTTGACTCAACATTAGTACACAATAGTATCGGAGTCACCTAGTGCAG”, for which the binding signal was 4250 fluorescence intensity (a.u.).
